Data: publication PMC9100763

Target: EgrIAA20 (Eucalyptus grandis)
Test: two-hybrid; targeted two-hybrid: Gal4 BD and Gal4 AD fusions co-transformed in yeast; growth on quadruple dropout medium lacking leucine, tryptophan, histidine and adenine (QDO/X/A in the methods), DDO as growth control; 10-fold gradient dilution in Figure 9

binding: binds
B1: Arabidopsis ARF5/MP (AtARF5) (protein, UniProt P93024 1-902)
chain: MMASLSCVEDKMKTSCLVNGGGTITTTTSQSTLLEEMKLLKDQSGTRKPVINSELWHACAGPLVCLPQVGSLVYYFSQGHSEQVAVSTRRSATTQVPNYPNLPSQLMCQVHNVTLHADKDSDEIYAQMSLQPVHSERDVFPVPDFGMLRGSKHPTEFFCKTLTASDTSTHGGFSVPRRAAEKLFPPLDYSAQPPTQELVVRDLHENTWTFRHIYRGQPKRHLLTTGWSLFVGSKRLRAGDSVLFIRDEKSQLMVGVRRANRQQTALPSSVLSADSMHIGVLAAAAHATANRTPFLIFYNPRACPAEFVIPLAKYRKAICGSQLSVGMRFGMMFETEDSGKRRYMGTIVGISDLDPLRWPGSKWRNLQVEWDEPGCNDKPTRVSPWDIETPESLFIFPSLTSGLKRQLHPSYFAGETEWGSLIKRPLIRVPDSANGIMPYASFPSMASEQLMKMMMRPHNNQNVPSFMSEMQQNIVMGNGGLLGDMKMQQPLMMNQKSEMVQPQNKLTVNPSASNTSGQEQNLSQSMSAPAKPENSTLSGCSSGRVQHGLEQSMEQASQVTTSTVCNEEKVNQLLQKPGASSPVQADQCLDITHQIYQPQSDPINGFSFLETDELTSQVSSFQSLAGSYKQPFILSSQDSSAVVLPDSTNSPLFHDVWDTQLNGLKFDQFSPLMQQDLYASQNICMSNSTTSNILDPPLSNTVLDDFCAIKDTDFQNHPSGCLVGNNNTSFAQDVQSQITSASFADSQAFSRQDFPDNSGGTGTSSSNVDFDDCSLRQNSKGSSWQKIATPRVRTYTKVQKTGSVGRSIDVTSFKDYEELKSAIECMFGLEGLLTHPQSSGWKLVYVDYESDVLLVGDDPWEEFVGCVRCIRILSPTEVQQMSEEGMKLLNSAGINDLKTSVS

These are yes or no findings as the source states them, for the method shown. A result given as binding can be weak or reduced; the word gives no strength.
